No constants are given. Whether binding was seen depends on the method and setting. In cells and extracts the contact can be indirect. Here binding means that the protein was enriched with, or labelled near, the bait; the list need not be complete. Sequences can lack the tags named with a protein.
B1: UP-…1 (UPF1), Q9FJR0 1-1254 (protein)
chain: MDSQQSDLFDTASQPDTVADEYTFLEFNTQGDSEFDYQDFGSPTAWPTPSDSISIADVADRGEGGAAADHHSEASSPSSLSAGAGNGAKVGRGGVGGSGGVSSSSQVDALAAGVGNLNFEETGDDDGFDYGKNDFTEHACKYCGISNPACVVRCNVASCRKWFCNSRGNTSGSHIVNHLVRAKHKEVCLHRDSPLGETILECYNCGCRNVFLLGFISAKTDSVVVLLCRDPCLNVNALKDMNWDLSQWCPLIDDRCFLPWLVKVPSEQEQLRARQISAQQINKIEELWKTNPDATLEDLEKPGVDDEPQPVQPKYEDAYQYQNVFAPLIKLEADYDKMMKESQSKENLTVRWDIGLNKKRVAYFVFPKEENELRLVPGDELRLRYSGDAVHPSWQSVGHVIKLTAQEEVALELRANQGVPIDVNHGFSVDFVWKSTSFDRMQGAMKNFAVDETSVSGYIYHQLLGHEVEAQMVRNTLPRRFGVPGLPELNASQVNAVKSVLQKPISLIQGPPGTGKTVTSAAIVYHMAKQGQGQVLVCAPSNVAVDQLAEKISATGLKVVRLCAKSREAVSSPVEYLTLHYQVRHLDTSEKSELHKLQQLKDEQGELSSSDEKKYKNLKRATEREITQSADVICCTCVGAADLRLSNFRFRQVLIDESTQATEPECLIPLVLGVKQVVLVGDHCQLGPVIMCKKAARAGLAQSLFERLVTLGIKPIRLQVQYRMHPALSEFPSNSFYEGTLQNGVTIIERQTTGIDFPWPVPNRPMFFYVQLGQEEISASGTSYLNRTEAANVEKLVTAFLKSGVVPSQIGVITPYEGQRAYIVNYMARNGSLRQQLYKEIEVASVDSFQGREKDYIILSCVRSNEHQGIGFLNDPRRLNVALTRARYGIVILGNPKVLSKQPLWNGLLTHYKEHECLVEGPLNNLKQSMVQFQKPRKIYNDRRLFYGGGAGMIGNDNFGSGNPNADRRGSRGRAGGSYLPSGPPNGARPGLHPAGYPIPRVPLSPFPGGPPSQPYAIPTRGPVGAVPHAPQPGNHGFGAGRGTSVGGHLPHQQATQHNVGTIGPSLNFPLDSPNSQPSPGGPLSQPGYGSQAFRDGFSMGGISQDFLADDIKSQGSHDPYNMADFATQASPGGFAVDYATQGAHGAFPGNFMNQNSQGGYSRFSGINDFMSQEYMAHGGQGLFTQAGFIDSSQDDGQQNPYGVNNPNLQSQGLPNSLYSQPFAHYNTQPLNLSGPQQSQPNQSSQNPKHPYNG
B2: RNA helicase RH8 (protein, UniProt Q8RXK6 1-505)
chain: MNNRGRYPPGIGAGRGAFNPNPNYQSRSGYQQHPPPQYVQRGNYAQNHQQQFQQAPSQPHQYQQQQQQQQQWLRRGQIPGGNSNGDAVVEVEKTVQSEVIDPNSEDWKARLKLPAPDTRYRTEDVTATKGNEFEDYFLKRELLMGIYEKGFERPSPIQEESIPIALTGRDILARAKNGTGKTAAFCIPVLEKIDQDNNVIQAVIIVPTRELALQTSQVCKELGKHLKIQVMVTTGGTSLKDDIMRLYQPVHLLVGTPGRILDLTKKGVCVLKDCSVLVMDEADKLLSQEFQPSVEHLISFLPESRQILMFSATFPVTVKDFKDRFLTNPYVINLMDELTLKGITQFYAFVEERQKIHCLNTLFSKLQINQSIIFCNSVNRVELLAKKITELGYSCFYIHAKMLQDHRNRVFHDFRNGACRNLVCTDLFTRGIDIQAVNVVINFDFPKNAETYLHRVGRSGRFGHLGLAVNLITYEDRFNLYRIEQELGTEIKQIPPHIDQAIYCQ
B3: RNA helicase RH53 (protein, UniProt Q9LUW5 82-616)
chain: GFAISESSERRVGDSESVGGDGLAISELGISPEIVKALSSKGIEKLFPIQKAVLEPAMEGRDMIGRARTGTGKTLAFGIPIIDKIIKYNAKHGRGRNPLCLVLAPTRELARQVEKEFRESAPSLDTICLYGGTPIGQQMRQLDYGVDVAVGTPGRVIDLMKRGALNLSEVQFVVLDEADQMLQVGFAEDVEIILEKLPEKRQSMMFSATMPSWIRSLTKKYLNNPLTVDLVGDSDQKLADGITTYSIIADSYGRASIIGPLVTEHAKGGKCIVFTQTKRDADRLSYALARSFKCEALHGDISQSQRERTLAGFRDGHFNILVATDVAARGLDVPNVDLIIHYELPNNTETFVHRTGRTGRAGKKGSAILIYSQDQSRAVKIIEREVGSRFTELPSIAVERGSASMFEGIGSRSGGSFGGGMRDRGSSFGGRSGGGGYGGSSGGYGGGRSGGSSNRYSGDSDRSGFGSFGMRSPEGYGSDRSSQSGGRSSFGGGRSGGSSNNRSSGFGDFGSDRSSQSGGRSSFGGFGSNDGKRSY

Key:
[1] = molecular target: T1, GFP-AGO1 (ARGONAUTE1, Arabidopsis thaliana) (Arabidopsis thaliana), O04379; experiment: affinity purification with mass spectrometry; GFP-AGO1 immunoprecipitated with magnetic microbeads coupled to GFP antibodies (μMACS GFP Isolation Kit) from 7-day-old pAGO1:GFP-AGO1 ago1-27 seedlings after 1 h HS at 37°C; lysis buffer 50mM Tris-HCl pH7,5, 50mM NaCl, 0,25% IGEPAL CA-630, 2mM MgCl2, 5mM DTT; control IPs in Col-0 and the p35S:GFP-3Flag line; nanoLC-MS/MS; settings: remark: other sources report otherwise
T1 chain: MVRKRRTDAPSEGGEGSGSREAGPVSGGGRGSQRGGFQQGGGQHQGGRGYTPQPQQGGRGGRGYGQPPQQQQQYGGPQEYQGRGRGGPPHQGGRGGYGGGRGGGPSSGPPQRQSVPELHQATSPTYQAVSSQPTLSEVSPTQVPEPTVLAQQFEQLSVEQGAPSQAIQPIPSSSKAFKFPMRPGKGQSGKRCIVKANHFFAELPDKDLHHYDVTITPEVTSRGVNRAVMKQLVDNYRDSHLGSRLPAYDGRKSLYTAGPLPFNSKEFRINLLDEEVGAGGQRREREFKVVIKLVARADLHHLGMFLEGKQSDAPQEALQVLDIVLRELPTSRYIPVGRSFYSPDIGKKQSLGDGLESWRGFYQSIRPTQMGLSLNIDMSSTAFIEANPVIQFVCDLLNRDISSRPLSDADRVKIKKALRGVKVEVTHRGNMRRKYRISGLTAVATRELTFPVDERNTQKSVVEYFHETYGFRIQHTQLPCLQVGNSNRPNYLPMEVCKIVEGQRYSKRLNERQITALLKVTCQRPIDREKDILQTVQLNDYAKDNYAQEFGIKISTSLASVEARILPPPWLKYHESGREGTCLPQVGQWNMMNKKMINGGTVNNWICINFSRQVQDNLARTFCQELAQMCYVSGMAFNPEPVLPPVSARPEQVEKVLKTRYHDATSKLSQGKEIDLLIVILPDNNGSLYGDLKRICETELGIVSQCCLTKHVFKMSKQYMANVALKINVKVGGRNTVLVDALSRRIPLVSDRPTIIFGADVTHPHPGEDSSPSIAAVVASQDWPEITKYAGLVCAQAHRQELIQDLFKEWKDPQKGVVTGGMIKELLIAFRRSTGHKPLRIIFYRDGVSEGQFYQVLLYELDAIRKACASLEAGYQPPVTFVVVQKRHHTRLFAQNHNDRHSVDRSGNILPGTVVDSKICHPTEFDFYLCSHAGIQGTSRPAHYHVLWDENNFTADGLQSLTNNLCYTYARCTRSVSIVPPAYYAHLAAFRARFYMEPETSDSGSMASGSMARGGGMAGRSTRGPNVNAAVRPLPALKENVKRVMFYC

[2] = molecular target: T2, GFP-AGO1 (ARGONAUTE1, Arabidopsis thaliana) (Arabidopsis thaliana) (UniProt O04379); experiment: as above
T2 sequence: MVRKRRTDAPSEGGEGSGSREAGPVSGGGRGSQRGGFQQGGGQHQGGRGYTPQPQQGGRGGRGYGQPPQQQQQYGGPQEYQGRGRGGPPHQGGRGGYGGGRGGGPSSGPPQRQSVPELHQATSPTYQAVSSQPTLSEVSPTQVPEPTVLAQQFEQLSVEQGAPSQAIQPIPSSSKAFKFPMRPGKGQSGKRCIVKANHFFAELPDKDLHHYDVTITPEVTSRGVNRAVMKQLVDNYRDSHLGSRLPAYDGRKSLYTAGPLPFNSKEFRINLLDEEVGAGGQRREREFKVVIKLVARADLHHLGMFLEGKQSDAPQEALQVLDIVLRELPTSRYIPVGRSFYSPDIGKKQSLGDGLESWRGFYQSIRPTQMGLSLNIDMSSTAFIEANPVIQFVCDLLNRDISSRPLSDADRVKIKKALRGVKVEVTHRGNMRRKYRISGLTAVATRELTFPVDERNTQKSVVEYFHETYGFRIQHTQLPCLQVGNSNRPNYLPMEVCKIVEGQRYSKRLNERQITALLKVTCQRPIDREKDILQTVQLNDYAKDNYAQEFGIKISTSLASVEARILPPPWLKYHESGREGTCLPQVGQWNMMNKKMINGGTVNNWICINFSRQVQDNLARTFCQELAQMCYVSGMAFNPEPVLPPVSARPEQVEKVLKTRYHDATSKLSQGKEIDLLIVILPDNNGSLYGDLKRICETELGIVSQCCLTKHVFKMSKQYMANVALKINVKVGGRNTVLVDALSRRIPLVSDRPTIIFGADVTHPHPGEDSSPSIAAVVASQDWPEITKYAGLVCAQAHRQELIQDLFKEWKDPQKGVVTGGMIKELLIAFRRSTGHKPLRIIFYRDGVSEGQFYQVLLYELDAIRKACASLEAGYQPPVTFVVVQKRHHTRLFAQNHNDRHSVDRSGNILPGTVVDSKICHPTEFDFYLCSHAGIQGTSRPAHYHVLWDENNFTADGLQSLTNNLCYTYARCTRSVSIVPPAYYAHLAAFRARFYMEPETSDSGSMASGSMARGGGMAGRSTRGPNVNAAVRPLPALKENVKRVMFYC

Row | Binder | binding [1] | binding [2]
1 | B1 | binds | 
2 | B2 |  | binds
3 | B3 |  | binds

From PMC10879784
